Patent US20230355549A1, “METHOD OF PREVENTING KIDNEY INJURY DISRUPTION OF INTESTINAL LYMPHATICS” (Vanderbilt University, priority 2020, published 2023)

Tested on: Sprague Dawley rats
Type: in vivo, rat
Procedure: Adult male Sprague Dawley rats (200-225 g, Charles River) were housed under a 12-h light/dark cycle with free access to normal rat chow and water. Kidney injury was induced by a single injection of puromycin […] (PAN) (125 mg/kg body weight, i.p.) while saline-injected rats served as controls (Cont). Eight days after injection, rats were sacrificed and blood, urine, and tissues were harvested. We also studied adult male (12 weeks old) Nphs1-hCD25 transgenic (NEP25, C57 bl/6 background) mice expressing human CD25 on podocytes can be selectively injured by injection of recombinant immunotoxin, anti-Tac (Fv)-PE38 (LMB2, 1 ng/g BW, i.v. generously provided by Dr. Ira Pastan) that results in proteinuria. These and wild type control mice were housed under normal conditions with free access to regular rodent chow and water. Two weeks after LMB2, mice were sacrificed and blood, urine and tissues harvested. All animal procedures were approved by the Institutional Animal Care and Use Committee at Vanderbilt University.
Mesenteric lymph was collected in a subset of conscious rats following cannulation of the mesenteric lymph duct. The rats were placed in Bollman cages in a temperature- and humidity-controlled incubator and lymph collected hourly for at least 3 h.
Albumin (Exocell), apoAI (Mybiosource), sphingosine-1 phosphate (S1P) (Mybiosource) and VEGF-C levels (Mybiosource) were measured by ELISA. Albuminuria was measured as urine albumin-to-creatinine ratio (ACR) (Nephrat II, Exocell) and QuantiChrom™ Creatinine Assay Kit (Bioassay Systems), respectively. Plasma and lymph total cholesterol and triglycerides were measured enzymatically (Cliniqa). HDL and LDL fractions were isolated from plasma and lymph by density-gradient ultracentrifugation after adjustment with potassium bromide. Lipoprotein particle size was evaluated by NMR methodology (Liposcience). Colorimetric assays were used to measure protein (BCA, ThermoFisher). Lipoproteins in plasma and lymph were separated by size-exclusion chromatography (SEC) using an Akta Pure fast-protein liquid chromatography (FPLC) system (GE Healthcare). Total IsoLG-protein adduct by LC/MS was measured as IsoLG-lysine after complete proteolytic digestion of lymph samples.

[1] = PAN rats, not significant vs Cont

Compound: CN(C)c1ncnc2c1ncn2[C@@H]1O[C@H](CO)[C@@H](N)[C@H]1O [PAN, puromycin aminoglycoside]
- IsoLG-lysine level in plasma [1]: 0.20±0.07 pmol/mg protein
- plasma HDL particle size [1]: 10.7±0.1 nm
- plasma VEGF-C [1]: 11.03 ± 0.76 pg/mL
- increase in intestinal lymph flow rate (PAN-treated rats vs controls): > 5 fold
